Results on 7 molecules are retold here after publication PMC11949052.

Amino acid sequences for entries named in this document (tags omitted). A change or cut given only in a name is not applied to a line headed by its entry.
UniProt P03952: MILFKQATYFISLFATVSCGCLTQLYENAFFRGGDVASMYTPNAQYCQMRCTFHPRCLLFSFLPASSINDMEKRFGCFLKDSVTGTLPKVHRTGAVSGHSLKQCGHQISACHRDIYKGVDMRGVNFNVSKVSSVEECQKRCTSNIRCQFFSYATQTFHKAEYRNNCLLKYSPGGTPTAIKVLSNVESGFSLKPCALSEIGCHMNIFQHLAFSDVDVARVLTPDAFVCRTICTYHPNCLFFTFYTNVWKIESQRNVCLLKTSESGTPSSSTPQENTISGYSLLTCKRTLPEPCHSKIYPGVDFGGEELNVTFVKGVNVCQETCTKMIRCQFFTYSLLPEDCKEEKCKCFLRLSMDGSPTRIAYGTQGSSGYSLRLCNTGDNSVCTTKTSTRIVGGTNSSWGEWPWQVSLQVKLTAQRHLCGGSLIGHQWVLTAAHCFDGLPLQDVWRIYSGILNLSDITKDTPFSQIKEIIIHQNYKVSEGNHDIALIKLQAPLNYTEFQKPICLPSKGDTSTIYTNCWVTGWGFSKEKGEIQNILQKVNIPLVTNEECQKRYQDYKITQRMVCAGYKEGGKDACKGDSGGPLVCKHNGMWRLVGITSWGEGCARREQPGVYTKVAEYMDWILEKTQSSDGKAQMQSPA

These are yes or no findings as the source states them, for the method shown. Some entries that bind do so weakly or less than the wild type.

One experiment deals with T1, activated C1s (C1s̄) (UniProt P09871).
T1 sequence (chain, biotinylated | biotinylated) 1: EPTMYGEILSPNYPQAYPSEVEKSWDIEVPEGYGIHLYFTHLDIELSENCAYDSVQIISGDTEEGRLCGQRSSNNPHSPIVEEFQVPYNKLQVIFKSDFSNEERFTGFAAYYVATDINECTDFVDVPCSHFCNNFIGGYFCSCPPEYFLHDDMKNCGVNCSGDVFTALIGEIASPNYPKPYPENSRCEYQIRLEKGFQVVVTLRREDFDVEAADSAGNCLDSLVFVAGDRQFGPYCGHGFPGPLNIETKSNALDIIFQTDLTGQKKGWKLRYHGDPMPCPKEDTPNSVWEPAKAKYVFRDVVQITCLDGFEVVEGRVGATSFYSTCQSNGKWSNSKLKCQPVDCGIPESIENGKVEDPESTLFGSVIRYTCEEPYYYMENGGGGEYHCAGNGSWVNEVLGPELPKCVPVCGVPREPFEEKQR
T1 sequence (chain, biotinylated | biotinylated) 2: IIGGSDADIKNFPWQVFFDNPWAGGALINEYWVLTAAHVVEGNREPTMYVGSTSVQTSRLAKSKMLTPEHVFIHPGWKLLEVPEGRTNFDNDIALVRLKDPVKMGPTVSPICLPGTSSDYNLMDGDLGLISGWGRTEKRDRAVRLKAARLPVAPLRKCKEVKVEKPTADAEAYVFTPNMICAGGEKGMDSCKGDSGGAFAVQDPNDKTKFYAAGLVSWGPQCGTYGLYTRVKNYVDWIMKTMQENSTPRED
In words: ELISA; Quidel kit: C1-INH (transfectant supernatant) incubated with biotinylated C1s̄, the complex captured on streptavidin-coated wells, detected with goat anti-human C1-INH Ab; C1-INH at 125 ng/mL, 250 ng/mL, 500 ng/mL and 1 μg/mL; relative absorbance (450 nm) against WT; only the target purified. A general note: ELISA stands for enzyme-linked immunosorbent assay.

A further experiment has as its target kallikrein (PKa) (human) (UniProt P03952). In words: ELISA; biotinylated FXIIa or PKa (25 μL of 2 μg/mL) with an equivalent molar amount of C1-INH (transfectant supernatant) in 2% BSA in PBS-T on a streptavidin-coated plate, 1 hour at 37°C; bound complex detected with anti-C1-INH mAb; serially diluted samples; relative absorbance against WT; only the target purified.

B1: C1-INH N272A (protein, UniProt P05155 23-500)
chain: NPNATSSSSQDPESLQDRGEGKVATTVISKMLFVEPILEVSSLPTTNSTTNSATKITANTTDEPTTQPTTEPTTQPTIQPTQPTTQLPTDSPTQPTTGSFCPGPVTLCSDLESHSTEAVLGDALVDFSLKLYHAFSAMKKVETNMAFSPFSIASLLTQVLLGAGENTKTNLESILSYPKDFTCVHQALKGFTTKGVTSVSQIFHSPDLAIRDTFVNASRTLYSSSPRVLSNNSDANLELINTWVAKNTNAKISRLLDSLPSDTRLVLLNAIYLSAKWKTTFDPKKTRMEPFHFKNSVIKVPMMNSKKYPVAHFIDQTLKAKVGQLQLSHNLSLVILVPQNLKHRLEDMEQALSPSVFKAIMEKLEMSKFQPTLLTLPRIKVTTSQDMLSIMEKLEFFDFSYDLNLCGLTEDPDLQVSAMQHQTVLELTETGVEAAAASAISVARTLLVFEVQQPFLFVLWDQQHKFPVFMGRVYDPRA
B1: the binding entry with activated C1s (C1s̄) and with kallikrein (PKa) (human) was “binds” each time.

B2: C1-INH A239D (protein, UniProt P05155 23-500)
chain: NPNATSSSSQDPESLQDRGEGKVATTVISKMLFVEPILEVSSLPTTNSTTNSATKITANTTDEPTTQPTTEPTTQPTIQPTQPTTQLPTDSPTQPTTGSFCPGPVTLCSDLESHSTEAVLGDALVDFSLKLYHAFSAMKKVETNMAFSPFSIASLLTQVLLGAGENTKTNLESILSYPKDFTCVHQALKGFTTKGVTSVSQIFHSPDLAIRDTFVNDSRTLYSSSPRVLSNNSDANLELINTWVAKNTNNKISRLLDSLPSDTRLVLLNAIYLSAKWKTTFDPKKTRMEPFHFKNSVIKVPMMNSKKYPVAHFIDQTLKAKVGQLQLSHNLSLVILVPQNLKHRLEDMEQALSPSVFKAIMEKLEMSKFQPTLLTLPRIKVTTSQDMLSIMEKLEFFDFSYDLNLCGLTEDPDLQVSAMQHQTVLELTETGVEAAAASAISVARTLLVFEVQQPFLFVLWDQQHKFPVFMGRVYDPRA
Regarding B2, the binding result with activated C1s (C1s̄) and with kallikrein (PKa) (human) was “binds” throughout.

B3: C1-INH N272D (protein, UniProt P05155 23-500)
chain: NPNATSSSSQDPESLQDRGEGKVATTVISKMLFVEPILEVSSLPTTNSTTNSATKITANTTDEPTTQPTTEPTTQPTIQPTQPTTQLPTDSPTQPTTGSFCPGPVTLCSDLESHSTEAVLGDALVDFSLKLYHAFSAMKKVETNMAFSPFSIASLLTQVLLGAGENTKTNLESILSYPKDFTCVHQALKGFTTKGVTSVSQIFHSPDLAIRDTFVNASRTLYSSSPRVLSNNSDANLELINTWVAKNTNDKISRLLDSLPSDTRLVLLNAIYLSAKWKTTFDPKKTRMEPFHFKNSVIKVPMMNSKKYPVAHFIDQTLKAKVGQLQLSHNLSLVILVPQNLKHRLEDMEQALSPSVFKAIMEKLEMSKFQPTLLTLPRIKVTTSQDMLSIMEKLEFFDFSYDLNLCGLTEDPDLQVSAMQHQTVLELTETGVEAAAASAISVARTLLVFEVQQPFLFVLWDQQHKFPVFMGRVYDPRA
B3: the binding result with activated C1s (C1s̄) and with kallikrein (PKa) (human) was “binds” in each case.

B4: C1-INH N271-N272del (protein, UniProt P05155 23-500)
chain: NPNATSSSSQDPESLQDRGEGKVATTVISKMLFVEPILEVSSLPTTNSTTNSATKITANTTDEPTTQPTTEPTTQPTIQPTQPTTQLPTDSPTQPTTGSFCPGPVTLCSDLESHSTEAVLGDALVDFSLKLYHAFSAMKKVETNMAFSPFSIASLLTQVLLGAGENTKTNLESILSYPKDFTCVHQALKGFTTKGVTSVSQIFHSPDLAIRDTFVNASRTLYSSSPRVLSNNSDANLELINTWVAKNTKISRLLDSLPSDTRLVLLNAIYLSAKWKTTFDPKKTRMEPFHFKNSVIKVPMMNSKKYPVAHFIDQTLKAKVGQLQLSHNLSLVILVPQNLKHRLEDMEQALSPSVFKAIMEKLEMSKFQPTLLTLPRIKVTTSQDMLSIMEKLEFFDFSYDLNLCGLTEDPDLQVSAMQHQTVLELTETGVEAAAASAISVARTLLVFEVQQPFLFVLWDQQHKFPVFMGRVYDPRA
Regarding B4, the binding result with activated C1s (C1s̄) and in the experiment with kallikrein (PKa) (human) was “binds” in each case.

B5: C1-INH N271del (protein, UniProt P05155 23-500)
chain: NPNATSSSSQDPESLQDRGEGKVATTVISKMLFVEPILEVSSLPTTNSTTNSATKITANTTDEPTTQPTTEPTTQPTIQPTQPTTQLPTDSPTQPTTGSFCPGPVTLCSDLESHSTEAVLGDALVDFSLKLYHAFSAMKKVETNMAFSPFSIASLLTQVLLGAGENTKTNLESILSYPKDFTCVHQALKGFTTKGVTSVSQIFHSPDLAIRDTFVNASRTLYSSSPRVLSNNSDANLELINTWVAKNTNKISRLLDSLPSDTRLVLLNAIYLSAKWKTTFDPKKTRMEPFHFKNSVIKVPMMNSKKYPVAHFIDQTLKAKVGQLQLSHNLSLVILVPQNLKHRLEDMEQALSPSVFKAIMEKLEMSKFQPTLLTLPRIKVTTSQDMLSIMEKLEFFDFSYDLNLCGLTEDPDLQVSAMQHQTVLELTETGVEAAAASAISVARTLLVFEVQQPFLFVLWDQQHKFPVFMGRVYDPRA
For the molecule B5, the binding result with activated C1s (C1s̄) and in the experiment with kallikrein (PKa) (human) was “binds” throughout.

B6: C1-INH K273del (protein, UniProt P05155 23-500)
chain: NPNATSSSSQDPESLQDRGEGKVATTVISKMLFVEPILEVSSLPTTNSTTNSATKITANTTDEPTTQPTTEPTTQPTIQPTQPTTQLPTDSPTQPTTGSFCPGPVTLCSDLESHSTEAVLGDALVDFSLKLYHAFSAMKKVETNMAFSPFSIASLLTQVLLGAGENTKTNLESILSYPKDFTCVHQALKGFTTKGVTSVSQIFHSPDLAIRDTFVNASRTLYSSSPRVLSNNSDANLELINTWVAKNTNNISRLLDSLPSDTRLVLLNAIYLSAKWKTTFDPKKTRMEPFHFKNSVIKVPMMNSKKYPVAHFIDQTLKAKVGQLQLSHNLSLVILVPQNLKHRLEDMEQALSPSVFKAIMEKLEMSKFQPTLLTLPRIKVTTSQDMLSIMEKLEFFDFSYDLNLCGLTEDPDLQVSAMQHQTVLELTETGVEAAAASAISVARTLLVFEVQQPFLFVLWDQQHKFPVFMGRVYDPRA
modifications: additional N-linked glycan at N272 (new sequon NN272IS)
Take B6: the binding result with activated C1s (C1s̄) and with kallikrein (PKa) (human) was “binds” in each case.

B7: C1-INH N272del (protein, UniProt P05155 23-500)
chain: NPNATSSSSQDPESLQDRGEGKVATTVISKMLFVEPILEVSSLPTTNSTTNSATKITANTTDEPTTQPTTEPTTQPTIQPTQPTTQLPTDSPTQPTTGSFCPGPVTLCSDLESHSTEAVLGDALVDFSLKLYHAFSAMKKVETNMAFSPFSIASLLTQVLLGAGENTKTNLESILSYPKDFTCVHQALKGFTTKGVTSVSQIFHSPDLAIRDTFVNASRTLYSSSPRVLSNNSDANLELINTWVAKNTNKISRLLDSLPSDTRLVLLNAIYLSAKWKTTFDPKKTRMEPFHFKNSVIKVPMMNSKKYPVAHFIDQTLKAKVGQLQLSHNLSLVILVPQNLKHRLEDMEQALSPSVFKAIMEKLEMSKFQPTLLTLPRIKVTTSQDMLSIMEKLEFFDFSYDLNLCGLTEDPDLQVSAMQHQTVLELTETGVEAAAASAISVARTLLVFEVQQPFLFVLWDQQHKFPVFMGRVYDPRA
B7: the binding entry with activated C1s (C1s̄) and with kallikrein (PKa) (human) was “binds” each time.
